Reference: publication PMC8706683
No constants are given. Whether binding was seen depends on the method and setting.

Sequences of proteins named here, by UniProt entry; tags and fusion partners are left off. Residues count along the entry.
UniProt Q91ZX7, residues 20-4545: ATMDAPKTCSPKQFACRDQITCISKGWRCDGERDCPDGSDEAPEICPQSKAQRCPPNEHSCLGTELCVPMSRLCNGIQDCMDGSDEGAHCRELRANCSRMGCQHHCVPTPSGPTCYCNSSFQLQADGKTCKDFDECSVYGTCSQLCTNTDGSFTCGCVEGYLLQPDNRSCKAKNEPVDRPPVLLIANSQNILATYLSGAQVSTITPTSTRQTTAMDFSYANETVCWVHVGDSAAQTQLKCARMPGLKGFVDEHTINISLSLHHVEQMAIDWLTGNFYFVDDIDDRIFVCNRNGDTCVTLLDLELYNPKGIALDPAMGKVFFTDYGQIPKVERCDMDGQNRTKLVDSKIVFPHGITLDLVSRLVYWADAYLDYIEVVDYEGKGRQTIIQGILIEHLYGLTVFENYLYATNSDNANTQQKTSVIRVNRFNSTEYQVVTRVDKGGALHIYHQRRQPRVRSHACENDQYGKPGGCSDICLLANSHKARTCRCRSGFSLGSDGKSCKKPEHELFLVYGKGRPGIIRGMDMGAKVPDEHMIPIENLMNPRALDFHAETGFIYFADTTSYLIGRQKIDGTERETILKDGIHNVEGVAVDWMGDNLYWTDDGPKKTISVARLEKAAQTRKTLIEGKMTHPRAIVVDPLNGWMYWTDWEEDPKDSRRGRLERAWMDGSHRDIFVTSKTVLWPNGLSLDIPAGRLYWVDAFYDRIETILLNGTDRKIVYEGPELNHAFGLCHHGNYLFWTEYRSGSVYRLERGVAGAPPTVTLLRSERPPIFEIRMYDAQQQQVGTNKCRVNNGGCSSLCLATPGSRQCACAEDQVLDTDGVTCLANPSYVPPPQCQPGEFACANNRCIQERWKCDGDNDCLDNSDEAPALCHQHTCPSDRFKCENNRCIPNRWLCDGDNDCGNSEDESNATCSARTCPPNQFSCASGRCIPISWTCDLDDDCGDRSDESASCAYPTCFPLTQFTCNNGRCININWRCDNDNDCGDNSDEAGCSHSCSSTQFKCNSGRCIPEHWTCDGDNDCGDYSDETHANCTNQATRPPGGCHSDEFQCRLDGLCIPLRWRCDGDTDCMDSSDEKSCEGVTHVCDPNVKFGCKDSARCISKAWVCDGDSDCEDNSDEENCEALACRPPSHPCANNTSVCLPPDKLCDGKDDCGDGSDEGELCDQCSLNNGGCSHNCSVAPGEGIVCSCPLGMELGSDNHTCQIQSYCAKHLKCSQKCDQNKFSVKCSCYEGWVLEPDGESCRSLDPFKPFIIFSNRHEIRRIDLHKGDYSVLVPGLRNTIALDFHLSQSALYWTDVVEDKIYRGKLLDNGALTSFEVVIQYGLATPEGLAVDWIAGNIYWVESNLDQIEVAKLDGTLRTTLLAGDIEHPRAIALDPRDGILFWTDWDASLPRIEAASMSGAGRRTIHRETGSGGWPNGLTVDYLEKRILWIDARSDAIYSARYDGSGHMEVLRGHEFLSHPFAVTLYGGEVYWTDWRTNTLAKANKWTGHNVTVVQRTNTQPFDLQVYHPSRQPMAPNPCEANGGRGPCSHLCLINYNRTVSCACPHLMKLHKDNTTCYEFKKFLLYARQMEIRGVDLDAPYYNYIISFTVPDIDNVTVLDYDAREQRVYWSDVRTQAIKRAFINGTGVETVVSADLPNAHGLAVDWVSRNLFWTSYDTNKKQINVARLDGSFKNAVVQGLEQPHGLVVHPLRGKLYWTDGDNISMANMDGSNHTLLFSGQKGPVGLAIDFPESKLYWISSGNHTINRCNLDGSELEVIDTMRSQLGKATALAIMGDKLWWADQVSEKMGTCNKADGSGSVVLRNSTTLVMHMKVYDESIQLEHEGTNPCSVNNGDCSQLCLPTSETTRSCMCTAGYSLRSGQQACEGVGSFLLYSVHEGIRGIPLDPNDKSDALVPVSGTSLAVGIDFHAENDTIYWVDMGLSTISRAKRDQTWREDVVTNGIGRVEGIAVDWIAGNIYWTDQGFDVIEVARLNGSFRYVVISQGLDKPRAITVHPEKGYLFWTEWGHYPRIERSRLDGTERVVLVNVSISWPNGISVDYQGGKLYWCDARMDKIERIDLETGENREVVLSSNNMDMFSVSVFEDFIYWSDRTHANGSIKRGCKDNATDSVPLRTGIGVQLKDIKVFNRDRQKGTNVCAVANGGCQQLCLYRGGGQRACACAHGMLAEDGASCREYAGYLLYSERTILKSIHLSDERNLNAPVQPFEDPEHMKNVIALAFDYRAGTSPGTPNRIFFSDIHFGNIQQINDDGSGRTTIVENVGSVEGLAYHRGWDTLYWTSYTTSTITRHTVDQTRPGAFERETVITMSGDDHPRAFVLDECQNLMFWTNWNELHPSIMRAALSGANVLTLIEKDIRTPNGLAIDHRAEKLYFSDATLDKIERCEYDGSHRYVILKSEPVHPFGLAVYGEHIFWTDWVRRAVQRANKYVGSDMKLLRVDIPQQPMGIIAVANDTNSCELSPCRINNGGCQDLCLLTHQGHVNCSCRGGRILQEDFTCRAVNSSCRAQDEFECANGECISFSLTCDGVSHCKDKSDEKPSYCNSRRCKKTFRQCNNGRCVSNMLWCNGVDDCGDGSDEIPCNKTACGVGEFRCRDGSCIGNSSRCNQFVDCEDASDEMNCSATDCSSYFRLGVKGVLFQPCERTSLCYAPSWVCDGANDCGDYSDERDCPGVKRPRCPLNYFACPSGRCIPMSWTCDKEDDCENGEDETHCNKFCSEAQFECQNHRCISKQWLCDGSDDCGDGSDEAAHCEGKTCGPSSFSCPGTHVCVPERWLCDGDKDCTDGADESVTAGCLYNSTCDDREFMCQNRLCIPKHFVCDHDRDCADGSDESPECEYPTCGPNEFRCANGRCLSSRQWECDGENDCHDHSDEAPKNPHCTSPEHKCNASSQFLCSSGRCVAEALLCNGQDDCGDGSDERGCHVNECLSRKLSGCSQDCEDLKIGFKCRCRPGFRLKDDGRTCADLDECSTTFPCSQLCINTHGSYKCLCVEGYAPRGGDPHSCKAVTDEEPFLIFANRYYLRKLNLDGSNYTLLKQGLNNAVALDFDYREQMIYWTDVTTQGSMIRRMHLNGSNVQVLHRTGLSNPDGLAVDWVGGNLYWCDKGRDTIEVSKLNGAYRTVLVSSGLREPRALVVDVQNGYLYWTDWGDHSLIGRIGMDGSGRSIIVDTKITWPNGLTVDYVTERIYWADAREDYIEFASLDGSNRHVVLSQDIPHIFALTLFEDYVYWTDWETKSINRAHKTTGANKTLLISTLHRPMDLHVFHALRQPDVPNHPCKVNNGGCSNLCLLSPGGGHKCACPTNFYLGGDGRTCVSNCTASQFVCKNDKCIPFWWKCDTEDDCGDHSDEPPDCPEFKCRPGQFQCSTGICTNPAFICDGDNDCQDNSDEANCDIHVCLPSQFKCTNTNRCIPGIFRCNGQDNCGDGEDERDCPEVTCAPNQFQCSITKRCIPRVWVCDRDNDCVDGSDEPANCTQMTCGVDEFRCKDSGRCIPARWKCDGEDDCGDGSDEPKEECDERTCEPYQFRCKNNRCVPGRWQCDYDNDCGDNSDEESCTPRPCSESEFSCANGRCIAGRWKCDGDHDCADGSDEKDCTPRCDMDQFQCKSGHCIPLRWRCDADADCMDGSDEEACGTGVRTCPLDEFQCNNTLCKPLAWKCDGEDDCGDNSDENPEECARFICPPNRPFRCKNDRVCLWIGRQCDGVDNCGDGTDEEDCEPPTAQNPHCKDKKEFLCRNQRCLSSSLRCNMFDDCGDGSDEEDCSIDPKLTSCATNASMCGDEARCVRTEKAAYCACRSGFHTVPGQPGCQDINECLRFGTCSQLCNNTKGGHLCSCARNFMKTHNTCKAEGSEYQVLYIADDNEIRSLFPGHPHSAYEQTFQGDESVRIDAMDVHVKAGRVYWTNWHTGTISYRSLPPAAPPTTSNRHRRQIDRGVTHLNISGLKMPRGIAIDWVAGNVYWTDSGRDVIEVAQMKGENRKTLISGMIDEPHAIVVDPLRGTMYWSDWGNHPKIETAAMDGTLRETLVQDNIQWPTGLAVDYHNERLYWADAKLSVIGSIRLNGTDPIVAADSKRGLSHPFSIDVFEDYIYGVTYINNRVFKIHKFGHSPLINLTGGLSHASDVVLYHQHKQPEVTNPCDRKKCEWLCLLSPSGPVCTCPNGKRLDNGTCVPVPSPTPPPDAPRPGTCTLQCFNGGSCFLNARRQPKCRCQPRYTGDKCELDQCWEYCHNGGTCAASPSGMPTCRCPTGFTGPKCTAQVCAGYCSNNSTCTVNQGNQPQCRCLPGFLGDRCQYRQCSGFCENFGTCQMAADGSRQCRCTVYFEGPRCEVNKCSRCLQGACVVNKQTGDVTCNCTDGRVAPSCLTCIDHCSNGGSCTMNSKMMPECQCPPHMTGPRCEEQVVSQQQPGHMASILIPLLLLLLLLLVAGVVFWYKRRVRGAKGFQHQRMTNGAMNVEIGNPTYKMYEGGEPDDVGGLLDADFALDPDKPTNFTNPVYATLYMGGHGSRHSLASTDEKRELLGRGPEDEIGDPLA

Biological target: low-density lipoprotein (LDL) receptor-related protein (LRP1) (mouse (endogenous in bEnd.3)) (UniProt Q91ZX7)
Assay: flow cytometry on cells; bEnd.3 cells in cold PBA incubated with constructs in serial dilution for 2 h at 4 °C (on ice) to prevent internalisation; secondary antibody by the detection moiety; median fluorescence intensity; only the binder purified

B1: FITC-scrambled ANG2 (peptide)
peptide: NSFEGTGGEYFTYRKRNFK
modifications: FITC-Ahx on the N-terminus
  binding: no binding
